Data as given in the supplement of paper PMC4604168 (melanoma cell lines).
The list shows a part of the results. Many values rest on one well or one pass, so single values are uncertain.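 The apoptosis fraction was the count of cleaved-PARP antibody-stained nuclei relative to all DNA-stained nuclei, imaged in 1,536-well plates. Screening doses were set so most cells survived, and baseline and induced cleaved-PARP levels vary greatly across cell lines.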

Assays:
Assay in all cases: cleaved PARP positive nuclei fraction relative to DMSO control; melanoma cells; higher = more apoptosis
Details in all cases: library dose: low library concentration; 72 h
501Mel = test system: 501Mel
A101D = test system: A101D
A2058 = test system: A2058
A375 = test system: A375
C32 = test system: C32
CBRC013 = test system: CBRC013 (line from a melanoma biopsy)
CBRC014 = test system: CBRC014 (line from a melanoma biopsy)
CBRC016 = test system: CBRC016 (line from a melanoma biopsy)
CBRC017 = test system: CBRC017 (line from a melanoma biopsy)

Compound	cleaved PARP positive nuclei fraction (501Mel) [%]	cleaved PARP positive nuclei fraction (A101D) [%]	cleaved PARP positive nuclei fraction (A2058) [%]	cleaved PARP positive nuclei fraction (A375) [%]	cleaved PARP positive nuclei fraction (C32) [%]	cleaved PARP positive nuclei fraction (CBRC013) [%]	cleaved PARP positive nuclei fraction (CBRC014) [%]	cleaved PARP positive nuclei fraction (CBRC016) [%]	cleaved PARP positive nuclei fraction (CBRC017) [%]
O=C(Nc1ccccc1)c1cc([N+](=O)[O-])ccc1Cl + Oc1nc(-c2ccc(C(F)(F)F)cc2)nc2c1CSCC2 [XAV939] (first compound 2 µM, partner dose 2 µM)	75.9	297	115	85	165	619	114	34.9	69.7
COc1ccc2c(c1)CCC1C2CCC2(C)C(NCCCCCCN3C(=O)C=CC3=O)CCC12 (stereo not drawn) + c1cc(-c2cnn3cc(-c4ccc(OCCN5CCCCC5)cc4)cnc23)ccn1 [Dorsomorphin] (first compound 0.4 µM, partner dose 0.4 µM)	121	196	24.9	178	64.2	483	108	78.5	177
O=C(O)c1ccc(-c2c[nH]c3ncc(-c4ccccc4)cc23)cc1C1CCCC1 + COc1cc(N2CCC(N3CCN(C)CC3)CC2)ccc1Nc1ncc(Cl)c(Nc2ccccc2S(=O)(=O)C(C)C)n1 [NVP-TAE684] (first compound 0.16 µM, partner dose 0.08 µM)	158	38.3	117	68.8	96.9	209	115	95.9	92.2
COc1cc2c(Oc3ccc4[nH]c(C)cc4c3F)ncnc2cc1OCCCN1CCCC1 [cediranib] + Cc1cc([N+](=O)[O-])ccc1NS(=O)(=O)c1cc(Cl)ccc1Cl [FH535] (first compound 0.4 µM, partner dose 1 µM)	70.9	58.9	85.1	87.3	61.6	48.1	98.1	2420	151
O=C(O)c1ccc(-c2c[nH]c3ncc(-c4ccccc4)cc23)cc1C1CCCC1 + COc1ccc(-c2ccc3c(N4CCOCC4)nc(N4C[C@@H](C)O[C@@H](C)C4)nc3n2)cc1CO [KU0063794] (first compound 0.16 µM, partner dose 0.02 µM)	86.2	135	104	170	103	99.3	90.1	34.7	199
NCC(=O)Nc1ccc(-n2nc(C(F)(F)F)cc2-c2ccc3c(ccc4ccccc43)c2)cc1 + CCN(CC)CCCCNc1ncc2cc(-c3cc(OC)cc(OC)c3)c(NC(=O)NC(C)(C)C)nc2n1 [PD173074] (first compound 1 µM, partner dose 0.1 µM)	353	58.6	69.6	343	72.7	222	89.9	126	114
Cc1cc([N+](=O)[O-])ccc1NS(=O)(=O)c1cc(Cl)ccc1Cl + CCCCCCCCCCCC1=C(O)C(=O)C=C(O)C1=O [Embelin] (first compound 1 µM, partner dose 1.2 µM)	76.9	49.8	143	199	256	86	156	1310	1040
COc1cc2c(Oc3ccc4[nH]c(C)cc4c3F)ncnc2cc1OCCCN1CCCC1 [cediranib] + O=C(O)C(=O)Nc1sc2c(c1C(=O)O)CCNC2 [TCS401] (first compound 0.4 µM, partner dose 1.66667 µM)	88.7	192	70.3	254	51.1	99	84.8	74.2	58.8
CN(NC(=O)CC(=O)NN(C)C(=S)c1ccccc1)C(=S)c1ccccc1 + COc1cc2ncnc(Nc3ccc(Oc4ccccc4)cc3)c2cc1OC [SrcI1] (first compound 0.006 µM, partner dose 2 µM)	691	112	144	2860	82	163	612	154	160
NCC(=O)Nc1ccc(-n2nc(C(F)(F)F)cc2-c2ccc3c(ccc4ccccc43)c2)cc1 + CCCCCCCCCCCC1=C(O)C(=O)C=C(O)C1=O [Embelin] (first compound 1 µM, partner dose 1.2 µM)	32.5	175	22.3	28.3	132	76.7	82.7	109	73.5
O=C(O)c1ccc(-c2c[nH]c3ncc(-c4ccccc4)cc23)cc1C1CCCC1 + CCN(CC)CCCCNc1ncc2cc(-c3cc(OC)cc(OC)c3)c(NC(=O)NC(C)(C)C)nc2n1 [PD173074] (first compound 0.16 µM, partner dose 0.1 µM)	80	167	53.4	172	183	146	115	89.9	99.1
O=C(Nc1ccccc1)c1cc([N+](=O)[O-])ccc1Cl + COC(=O)c1sccc1S(=O)(=O)Nc1ccc(Nc2ccccc2)cc1OC [GSK0660] (first compound 2 µM, partner dose 1 µM)	84.2	152	40.6	72.4	68.8	88.3	96.7	91.2	113

Some of the entries so far, bar-delimited.
Compound | cleaved PARP positive nuclei fraction (501Mel) [%] | cleaved PARP positive nuclei fraction (A101D) [%] | cleaved PARP positive nuclei fraction (A2058) [%] | cleaved PARP positive nuclei fraction (A375) [%] | cleaved PARP positive nuclei fraction (C32) [%] | cleaved PARP positive nuclei fraction (CBRC013) [%] | cleaved PARP positive nuclei fraction (CBRC014) [%] | cleaved PARP positive nuclei fraction (CBRC016) [%] | cleaved PARP positive nuclei fraction (CBRC017) [%]
COc1ccc2c(c1)CCC1C2CCC2(C)C(NCCCCCCN3C(=O)C=CC3=O)CCC12 (stereo not drawn) + c1cc(-c2cnn3cc(-c4ccc(OCCN5CCCCC5)cc4)cnc23)ccn1 [Dorsomorphin] (first compound 0.4 µM, partner dose 0.4 µM) | 121 | 196 | 24.9 | 178 | 64.2 | 483 | 108 | 78.5 | 177
O=C(O)c1ccc(-c2c[nH]c3ncc(-c4ccccc4)cc23)cc1C1CCCC1 + COc1cc(N2CCC(N3CCN(C)CC3)CC2)ccc1Nc1ncc(Cl)c(Nc2ccccc2S(=O)(=O)C(C)C)n1 [NVP-TAE684] (first compound 0.16 µM, partner dose 0.08 µM) | 158 | 38.3 | 117 | 68.8 | 96.9 | 209 | 115 | 95.9 | 92.2
